From patent publication US20060293227A1, “Cosmetic compositions and methods using transforming growth factor-beta mimics” (priority 2005, published 2006)
“Also recorded” adds a separate entry of the source. Not every detail of the peptide structures is certain; ends, links or a residue may be inferred. Where no end group is shown, it is not given here.

Assays:
skin [1] = assay type: in vivo, human; settings: person, lotion about 0.001% in EUCERIN on one side of face, 1-2 times per week
Excerpt: A person, of light complexion, applied a lotion comprising cytomodulin (SEQ ID NO: 1) at a concentration of about 0.001%, in EUCERIN™, to one side of their face a at a frequency of 1-2 times per week, typically at night before sleep, leaving uncovered while leaving the other side of their face without application of the TGF-β lotion. […] For example, crows feet became more shallow and the skin and face looked fuller and smoother. Color and skin tone became more youthful in appearance. […] After 18 days of treatment, the difference in appearance between the treated and untreated sides of the face was noticeable enough that the subject began to apply the topical composition to the entire face.
The same subject applied the CM-1 lotion to the back of one hand daily, while leaving the back of the other hand untreated. The treatment continued for several weeks.

eyelids = assay type: in vivo, human; settings: person; lotion about 0.001% on eyelids twice per week for 2 months
Excerpt: A person, applied a lotion comprising cytomodulin (SEQ ID NO: 1) at a concentration of about 0.001%, to their eyelids twice per week for 2 months.

[2] = test system: human osteogenic sarcoma (HOS) cell line; test: Expression of type I collagen, TGF-β, alkaline phosphatase and osteonectin in HOS cells; assay type: cell-based
skin [3] = assay type: in vivo, human; settings: person
Excerpt: A person, with very dry, wind-burnt skin, many fine lines, and the beginning of wrinkles, applied a lotion comprising cytomodulin (SEQ ID NO: 1) at a concentration of about 0.001% on left side of their face only, three days per week. […] Within 3 weeks there was a a noticeable difference between the two sides of the face, with the right side having more fine lines appearing much drier and weather-worn than the left (treated) side. […] The subject stopped application after 3 months because of the difference in the appearance of the two side of the face A person applied a lotion comprising cytomodulin (SEQ ID NO: 1) at a concentration of about 0.001% on right side of their neck only, daily. […] The right side of the neck is noticeably different than the left side of the neck. […] A person with noticebly wrinkled and thickened skin on the neck applied a lotion comprising cytomodulin (SEQ ID NO: 1) at a concentration of about 0.001% to their neck once every four days. The subject also used Lancome makeup with sunscreen and Oil of Olay moisturizer for sensitive skin.

NRK-49 F fibroblasts = test: Growth and colony formation by NRK-49 F fibroblasts in soft agar; assay type: cell-based
Experimental: The original assay for TGF-β, the ability to promote anchorage independent growth of normal fibroblasts is still one of the hallmarks of TGF-β activity. NRK-49 F fibroblasts were grown at 37° C. in DEM supplemented with 10% fetal calf serum. […] To this, either 100 nM TGF-β (positive control) or 100 nM cytomodulin was added. NRK49 F fibroblasts (5×10^4 cells/mi) were mixed with 0.3% agar were plated on the bottom of 35 mm culture dishes. Colony formation was observed starting on day 3 of culture.

ANVAENA [cytomodulin, Ala-Asn-Val-Ala-Glu-Asn-Ala]
Freckles and other areas of increased pigmentation (skin [1]): decreased in color or disappeared
Indices of skin aging, such as wrinkling (crows feet) (skin [1]; after the first treatment, versus untreated side): noticeably ameliorated
Effect on eyelids (subject's report) (eyelids): like having an eye lift
Osteonectin (marker of the osteoblast phenotype) [2]: specifically stimulate
Skin appearance of treated side of face (skin [3]; dry wind-burnt skin, lotion about 0.001% on left side of face, three days per week, within 3 weeks): more supple, plumper, with fewer lines
Wrinkles in the neck (subject's report) (skin [3]; wrinkled and thickened neck skin, lotion about 0.001% once every four days): virtually eliminated
Skin appearance of treated side of neck (skin [3]; lotion about 0.001% on right side of neck, daily, in about three weeks): smoother, more supple, more youthful
Growth characteristics of the colonies over time (NRK-49 F fibroblasts; NRK-49 F fibroblasts in soft agar, compared with TGF-β cultures): similar
Growth and colony formation in soft agar (NRK-49 F fibroblasts; NRK-49 F fibroblasts, 100 nM in Example 2, with EGF and PDGF): formed colonies to approximately the same extent as the TGF-β cultures; also recorded: growth and colony formation
